According to the supplement of paper PMC7238544:
Where a name gives a salt, the structure may show the parent alone. ± gives the standard deviation of the averaged measurements. Some of the results follow. The data scatter; read single values as rough.

These molecules were tested on hAMSC donor 2 (assay: transgenic luciferase activity (RLU/mg protein) fold change vs vehicle control (ratio); higher = more transgene expression). Details: priming compound concentration 13 µM.

SMILES | transgenic luciferase activity
CC(=O)Oc1ccccc1C(=O)Nc1ncc([N+](=O)[O-])s1 [Nitazoxanide] | 0.639 ± 0.34
Cc1nc2ccccn2c(=O)c1CCN1CCC(C(=O)c2ccc(F)cc2)CC1 [Pirenperone] | 0.56 ± 0.11
CC(C)(C(=O)O)c1ccc(C(O)CCCN2CCC(C(O)(c3ccccc3)c3ccccc3)CC2)cc1 (stereo unspecified) [Fexofenadine hydrochloride] | 0.664 ± 0.17
CC1CNc2c(cccc2S(=O)(=O)N[C@@H](CCCNC(=N)N)C(=O)N2CC[C@@H](C)C[C@@H]2C(=O)O)C1 (stereo partly specified) [Argatroban] | 0.504 ± 0.061
O=c1[nH]cnc2c1ncn2[C@H]1CC[C@@H](CO)O1 [Didanosine] | 0.518 ± 0.093
CC(C)NCC(O)COc1ccc(COCCOC(C)C)cc1 (stereo unspecified) [Bisoprolol fumarate] | 0.545 ± 0.096
CCN1CCN(c2cc3c(cc2F)c(=O)c(C(=O)O)cn3C2CC2)CC1 [Enrofloxacin] | 0.72 ± 0.093
O=C1N(c2ccccc2)c2ccccc2C1(Cc1ccncc1)Cc1ccncc1 [Linopirdine dihydrochloride] | 0.494 ± 0.073
CN(C)CCC=C1c2ccccc2COc2ccccc21 [Doxepin hydrochloride] | 0.402 ± 0.12
C[C@@H]1CN(CCCn2c3ccccc3c3ccccc32)C[C@H](C)N1 [Rimcazole dihydrochloride] | 0.36 ± 0.015
CN(C)CCN(Cc1ccccc1)c1ccccn1 [Tripelennamine hydrochloride] | 0.45 ± 0.11

A draw from above in order of SMILES length, falling:
SMILES | transgenic luciferase activity
CC(=O)Oc1ccccc1C(=O)Nc1ncc([N+](=O)[O-])s1 [Nitazoxanide] | 0.639 ± 0.34
CC(C)NCC(O)COc1ccc(COCCOC(C)C)cc1 (stereo unspecified) [Bisoprolol fumarate] | 0.545 ± 0.096
CN(C)CCN(Cc1ccccc1)c1ccccn1 [Tripelennamine hydrochloride] | 0.45 ± 0.11

Each molecule was assayed on hAMSC donor 1 (assay: transfection efficiency (EGFP+ cells / Hoechst count) fold change vs vehicle control (ratio); hAMSC are human adipose-derived mesenchymal stem cells given an EGFP-luciferase plasmid by lipofection; higher = enhanced transfection). Details: priming compound concentration 0.2 µM.

SMILES | transfection efficiency
O=C1NC(=O)C(c2ccccc2)(c2ccccc2)N1 [Dilantin] | 0.912 ± 0.18
CC(C)C[C@H](NC(=O)[C@@H](COC(C)(C)C)NC(=O)[C@H](Cc1ccc(O)cc1)NC(=O)[C@H](CO)NC(=O)[C@H](Cc1c[nH]c2ccccc12)NC(=O)[C@H](Cc1cnc[nH]1)NC(=O)[C@@H]1CCC(=O)N1)C(=O)N[C@@H](CCCNC(=N)N)C(=O)N1CCC[C@H]1C(=O)NNC(N)=O [Goserelin acetate] | 1.05 ± 0.093
O=C1CN(/N=C/c2ccc(-c3ccc([N+](=O)[O-])cc3)o2)C(=O)N1 [Dantrolene sodium] | 1.04 ± 0.41
CCN(CC)CC(=O)Nc1c(C)cccc1C [Lidocaine] | 1.2 ± 0.22
C=CC[C@@H]1/C=C(\C)C[C@H](C)C[C@H](OC)[C@H]2O[C@@](O)(C(=O)C(=O)N3CCCC[C@H]3C(=O)O[C@H](/C(C)=C/[C@@H]3CC[C@@H](O)[C@H](OC)C3)[C@H](C)[C@@H](O)CC1=O)[C@H](C)C[C@@H]2OC [Tacrolimus] | 0.924 ± 0.19
CC[C@@H](CO)NCCN[C@@H](CC)CO [Ethambutol] | 0.969 ± 0.32
O=C(O)CCCc1ccccc1 [4-Phenylbutyric acid] | 0.812 ± 0.23
O=c1c(-c2ccccc2)c1-c1ccccc1 [Diphenylcyclopropenone] | 1.18 ± 0.26
CC(C)(C(=O)c1cccnc1)c1cccnc1 [Metyrapone] | 1.03 ± 0.078
COc1c(N2CCNC(C)C2)c(F)cc2c(=O)c(C(=O)O)cn(C3CC3)c12 (stereo unspecified) [Gatifloxacin] | 1.04 ± 0.22
Cc1cnc(C(=O)NCCc2ccc(S(=O)(=O)NC(=O)NC3CCCCC3)cc2)cn1 [Glipizide] | 0.9 ± 0.058
Clc1ccc(CO/N=C(\Cn2ccnc2)c2ccc(Cl)cc2Cl)c(Cl)c1 [Oxiconazole nitrate] | 1.38 ± 0.14
CN1CCN(CCCN2c3ccccc3Sc3ccc(Cl)cc32)CC1 [Prochlorperazine maleate] | 1.05 ± 0.28
C=C1/C(=C\C=C2/CCC[C@]3(C)[C@@H]([C@H](C)CCCC(C)(C)O)CC[C@@H]23)C[C@@H](O)C[C@@H]1O [Calcitriol] | 0.706 ± 0.15
C#C[C@]1(O)CC[C@H]2[C@@H]3CCc4cc(OC)ccc4[C@H]3CC[C@@]21C [Mestranol] | 0.952 ± 0.084
Nc1ccn([C@@H]2O[C@H](CO)[C@@H](O)[C@@H]2O)c(=O)n1 [Cytarabine] | 0.978 ± 0.3
COc1cccc2c1C(=O)c1c(O)c3c(c(O)c1C2=O)C[C@@](O)(C(C)=O)C[C@@H]3O[C@H]1C[C@H](N)[C@H](O)[C@H](C)O1 [Daunorubicin hydrochloride] | 1.29 ± 0.32
CC/C(=C(\c1ccccc1)c1ccc(OCCN(C)C)cc1)c1ccccc1 [Tamoxifen] | 0.966 ± 0.46
COc1ccc(CN2CCN(C(c3ccc(F)cc3)c3ccc(F)cc3)CC2)c(OC)c1OC [Lomerizine dihydrochloride] | 1.31 ± 0.23
CC(C)NCC(O)COc1cccc2ccccc12 (stereo unspecified) [Propranolol hydrochloride] | 0.737 ± 0.28
